The other results are listed elsewhere or left out. Shown are side measurements of this screen, not its main read-out; they come without a call. The list favours compounds with an active or inconclusive main result. Words in brackets tell the shape of the fitted curve; partial curves, single points and poor fits give uncertain potencies.
Experiment: qHTS Assay for Lipid Storage Modulators in Drosophila S3 Cells;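 for cell number change: cells counted by Cell Tracker Red CMTPX staining in the red channel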
Details: BODIPY lipid droplet fluorescence, 18-24 h; for cell number change: measured here: cell count max response, cells fed with added oleic acid
In short: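 Drosophila S3 cells got compounds at several concentrations plus oleic acid (400 uM solution). Laser-scanning cytometry with 488 nm excitation read lipid droplets at 500-530 nm and cells at 575-640 nm. Percent activity was relative to 20 uM Triacsin C.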

[1] = measured here: lipid fluorescence (Fed channel) AC50, cells fed with added oleic acid
[2] = measured here: cell number channel AC50, cells fed with added oleic acid

SMILES	cell number change [%]	AC50 [1]	AC50 [2]
Cn1cc(C(=O)N/N=C/c2ccc3c(c2)OCO3)c2ccccc21	-2.22	23.1 µM [rising, single point]	–
CCOC(=O)c1ccc(NC(=O)CSc2nnc(C)n2-c2ccccc2)cc1	-34.8	–	0.0058 µM [falling, full curve, poor fit]
O=C(CSc1nc(O)c(Cc2ccccc2)c(=O)[nH]1)Nc1nc2c(s1)CCCC2	-11.8	29.1 µM [falling, single point]	–
COc1ccc(-c2cc(C(=O)Nc3cc(C)nn3-c3ccccc3)no2)cc1	8.27	–	–
Cc1ccc2nc(/C(C#N)=C\c3ccc(N4CCOCC4)o3)[nH]c2c1	-48.3	–	8.2 µM [falling, single point]
COC(=O)[C@H]1Cc2c([nH]c3ccccc23)[C@H](c2ccccc2)N1	25	–	–
COc1ccc(S(=O)(=O)N2CCOCC2)cc1NC(=O)COc1cccnc1[N+](=O)[O-]	38.1	–	–
CCCCn1c(SCC(=O)NCc2cccs2)nc2c1c(=O)n(C)c(=O)n2C	20.9	0.92 µM [rising, full curve]	1.46 µM [rising, full curve]
Cc1ccc(S(=O)(=O)N2CCC(C(=O)NCC(C)(C)N3CCOCC3)CC2)c(C)c1	0.414	–	–
O=C(O)c1cccnc1Sc1ccc(Br)cc1	19.8	11.6 µM [rising, single point]	–
COc1ccc(CNC(=O)CN2C(=O)NC(C)(c3cccc4ccccc34)C2=O)cc1OC (stereo not given)	–	10.3 µM [falling, partial curve]	–
Cn1c(=O)oc2cc(S(=O)(=O)N3CCN(c4cccc(Cl)c4)CC3)ccc21	15.5	0.00461 µM [falling, full curve, poor fit]	–
O=C(N/N=C\c1cc2c(cc1[N+](=O)[O-])OCO2)c1cccs1	-18.1	3.66 µM [rising, partial curve]	–
COCCn1c(SCC(=O)Nc2sccc2C(N)=O)nnc1-c1ccncc1	18.6	0.0058 µM [rising, full curve, poor fit]	–
CCN(C(=O)CSc1nc2nc(C)cc(C)n2n1)c1cccc(C)c1	29.6	–	5.17 µM [falling, single point]
COC(=O)/C=C1/S/C(=N/NC(=O)c2ccc(Cl)cc2Cl)NC1=O	31	–	18.4 µM [rising, single point]
S=C(Nc1ccc(Br)cc1Cl)N1CCN(c2ccccn2)CC1	–	–	5.8 µM [rising, partial curve, poor fit]
COc1ccc(NC(=O)COC(=O)/C=C/C(=O)OCC(=O)Nc2ccc(OC)c(Cl)c2)cc1Cl	3.79	4.61 µM [rising, single point]	–
CCCN(C(=O)COC(=O)CC1CCCCC1)c1c(N)n(Cc2ccccc2)c(=O)[nH]c1=O	81.8	–	–
NS(=O)(=O)c1ccc(NC=C2C(=O)OC3(CCCCC3)OC2=O)cc1	2.72	29.1 µM [rising, single point]	–
Cc1ccc(C(C)C)c(OCc2nnc(SCC(=O)Nc3nccs3)n2C)c1	–	–	0.461 µM [rising, single point]

SMILES	cell number change [%]	AC50 [1]	AC50 [2]
COc1ccc(CCNC(=O)c2c(O)c3ccccc3n(C)c2=O)cc1	6.35	–	–
COc1ccc([N+](=O)[O-])cc1NC(=O)C(C)OC(=O)C1CC(=O)N(Cc2ccco2)C1 (stereo not given)	11.2	–	–
Cc1cc(N=Nc2ccccc2)c(NCC(O)C(O)C(O)CO)cc1C (stereo not given)	-29	13 µM [falling, partial curve, poor fit]	–
Cc1oc(-c2ccc(Cl)cc2)nc1CN1CCC(C(=O)NCCCN2CCCC2=O)CC1	1.53	0.461 µM [rising, full curve]	–
CCOc1ccc(NC(=O)CN2C(=O)NC3(CCCC3)C2=O)cc1S(=O)(=O)N1CCCCC1	18.2	2.31 µM [falling, single point]	–
O=C(N/N=C/c1ccccn1)C(O)c1ccccc1 (stereo not given)	–	–	4.61 µM [falling, single point]
CCOc1ccc(CCNC(=O)COC(=O)c2ccc(C)c([N+](=O)[O-])c2)cc1OCC	-53.5	11.6 µM [falling, single point]	4.61 µM [falling, full curve, poor fit]
COCCn1c(SCC(=O)Nc2sc(C)c(C)c2C#N)nnc1-c1ccc(OC)cc1	-9.99	0.82 µM [rising, full curve, poor fit]	–
CCCC(=O)N(Cc1cc(=O)[nH]c2ccccc12)c1cccc(C)c1	21.5	–	–
COc1ccc(Cn2c(=S)[nH]c3cc(C(=O)NCCCN4CCOCC4)ccc3c2=O)cc1	18.5	–	–
CC(=O)Nc1ccc(NC(=O)CSc2nnc(-c3ccco3)n2Cc2ccco2)cc1	-12.9	0.58 µM [rising, single point]	–
Nc1ncc2c(n1)CCN(c1ccc([N+](=O)[O-])cc1)C2	–	29.1 µM [falling, single point]	–
COc1cccc2sc(NNC(=O)c3nc4ccccc4s3)nc12	-59.2	18.4 µM [falling, single point]	29.1 µM [falling, single point]
Cc1ccc2c(Cl)cc(Cl)c(OCC(=O)Nc3ccc(C)c(S(=O)(=O)N(C)C)c3)c2n1	4.31	23.1 µM [rising, partial curve, poor fit]	–
COc1ccc(NC(=O)CSc2nc3ccsc3c(=O)n2CCC(=O)O)c(OC)c1	21.8	–	–
COc1cc(C(=O)NCCC(=O)NCc2c(F)cc(F)cc2F)cc(OC)c1OC	14.5	0.164 µM [rising, single point]	–
CC(C)(C)c1cc(CN(CCO)CCO)cc(C(C)(C)C)c1O	-39.3	1.16 µM [falling, full curve]	0.13 µM [falling, full curve, poor fit]
CCOc1ccc(OCCCC(=O)N(CC)CC(=O)Nc2c(F)cccc2F)cc1	-4.95	29.1 µM [falling, single point]	–
Cc1ccc(N2CC(C(=O)Nc3ncc([N+](=O)[O-])s3)CC2=O)cc1 (stereo not given)	-31.2	29.1 µM [falling, single point]	20.6 µM [falling, single point]
COc1ccc(N2CCN(C(=O)c3ccc(CNS(=O)(=O)c4cc(C)ccc4C)cc3)CC2)cc1	–	1.64 µM [falling, full curve]	–
O=C(COc1ccc2c3c(c(=O)oc2c1)CCC3)N[C@@H](Cc1ccccc1)C(=O)O	42.8	0.58 µM [rising, single point]	18.4 µM [rising, partial curve]

Reprinted at random: 5 compounds from above
SMILES	cell number change [%]	AC50 [1]	AC50 [2]
Cc1ccc2nc(/C(C#N)=C\c3ccc(N4CCOCC4)o3)[nH]c2c1	-48.3	–	8.2 µM [falling, single point]
CCOc1ccc(NC(=O)CN2C(=O)NC3(CCCC3)C2=O)cc1S(=O)(=O)N1CCCCC1	18.2	2.31 µM [falling, single point]	–
COc1ccc(Cn2c(=S)[nH]c3cc(C(=O)NCCCN4CCOCC4)ccc3c2=O)cc1	18.5	–	–
COC(=O)/C=C1/S/C(=N/NC(=O)c2ccc(Cl)cc2Cl)NC1=O	31	–	18.4 µM [rising, single point]
CCOc1ccc(OCCCC(=O)N(CC)CC(=O)Nc2c(F)cccc2F)cc1	-4.95	29.1 µM [falling, single point]	–

Additional results

SMILES	cell number change [%]	AC50 [1]	AC50 [2]
CN(CC(=O)Nc1cccc(F)c1)C(=O)c1ccc(OCC2CCCO2)cc1 (stereo not given)	-13.5	6.51 µM [falling, single point]	–
CC1(C)CC(=O)C2=C(C1)N(c1ccc(F)cc1)C(=O)C2(NC(=O)c1ccccc1)C(F)(F)F (stereo not given)	-62.6	6.51 µM [rising, single point]	29.1 µM [falling, single point]
COc1ccc(/C=C2/CC/C(=C\c3ccc(OC)c(OC)c3OC)C2=O)c(OC)c1OC	-16.2	5.8 µM [rising, partial curve]	–
Cc1ccc(-n2c(=O)c3sccc3n(CC(=O)NC3CCCC3)c2=O)cc1	-23.8	–	–
COc1ccc(C(=O)NC(=S)NCc2ccco2)cc1	24.5	–	–
CC1Sc2ccc(C(=O)Nc3ccc(S(=O)(=O)N(C)C)cc3)cc2NC1=O (stereo not given)	–	4.61 µM [falling, partial curve, poor fit]	–
CCCCn1c(N)c(N(CC(C)C)C(=O)c2c(CC)noc2C)c(=O)[nH]c1=O	-9.94	23.1 µM [rising, single point]	–
Cc1ccc(-c2nc3ccsc3c(=O)[nH]2)cc1	5.83	–	–
Cc1nn(C(=O)Cn2cc([N+](=O)[O-])cn2)c(C)c1Cl	5.54	–	–
O=C(Cc1ccc2cccnc2c1)c1ccc(O)cc1O	-46.2	20.6 µM [falling, partial curve]	23.1 µM [falling, single point]
CCn1c2ccccc2c2cc(NC(=S)N3CCOCC3)ccc21	-19.3	0.259 µM [falling, full curve, poor fit]	–
Cc1cc(NCc2ccco2)n2c(nc3ccccc32)c1C#N	-3.53	4.11 µM [falling, single point]	–
Cc1cc(NC(=S)NC(=O)c2ccco2)c2ccccc2n1	–	–	6.51 µM [rising, single point]
Cc1ccc(-n2c(C)cc(C)c(C#N)c2=O)cc1Cl	-1.45	0.0651 µM [rising, full curve]	–
Cc1ccc(S(=O)(=O)NNc2nc3ccccc3nc2C(F)(F)F)cc1	65.9	–	29.1 µM [rising, single point]
N/C(=N\OC(=O)CCC1CCCCC1)c1ccccn1	-9.9	–	3.66 µM [rising, single point]
O=c1/c(=C/c2ccc(CNS(=O)(=O)c3ccccc3)o2)sc2n1CCN=2	24.8	0.731 µM [rising, single point]	1.16 µM [rising, full curve, poor fit]
COCCCNC(=O)C(C#N)c1nc2ccccc2nc1N1CCCC1 (stereo not given)	2.33	–	–
CCCCn1c(SCC(=O)Nc2cc(C)on2)nc2cc(S(N)(=O)=O)ccc21	-27.4	0.146 µM [falling, full curve, poor fit]	–
C/C(=N/NC(=O)c1ccc2c(c1)OCO2)c1cccc([N+](=O)[O-])c1	-3.12	6.51 µM [rising, single point]	–
